2 molecules from US20180339059A1 (DINGFU BIOTARGET, published 2018) can be followed below.

Sequences of proteins named here, by UniProt entry; tags and fusion partners are left off. Residues count along the entry.
UniProt P43489, residues 29-277: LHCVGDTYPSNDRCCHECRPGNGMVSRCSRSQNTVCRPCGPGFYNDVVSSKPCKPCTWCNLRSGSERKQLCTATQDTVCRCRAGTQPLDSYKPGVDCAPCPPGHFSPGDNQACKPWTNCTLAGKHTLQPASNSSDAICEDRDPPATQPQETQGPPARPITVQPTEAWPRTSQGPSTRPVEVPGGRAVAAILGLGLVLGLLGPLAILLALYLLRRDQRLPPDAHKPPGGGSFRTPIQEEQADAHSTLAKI

Experiment [1] concerns the target hOX40-EGFP on HEK293 cells (human) (UniProt P43489). Put plainly: flow cytometry on hOX40-EGFP HEK293 cells, 2 µg scFv, anti-hIg-PE. (In flow cytometry, cells or beads pass a laser one at a time.)
Experiment [2] shares this target. The experiment in a line: flow cytometry on HEK293 cells expressing hOX40-EGFP.
The target is the same in experiment [3]. Put plainly: flow cytometry on HEK293 cells expressing hOX40-EGFP, anti-hIg-PE.

These are yes or no findings as the source states them, for the method shown. Some entries that bind do so weakly or less than the wild type.

B1: O19 scFv (scFv, not shown: a dimerising Fc or GST)
scFv: QVQLVESEGGLVQPGGSLRLSCAASRFTFSNYWMSWVRQAPGKGLEWVANIKQDGSEKYYMDSVKGRFTISRDNAKNSLFLQMNTLRAEDTAMYYCTRVSFGVPTYDDFWRSYATPAWYFDFWGRGTLVTVSSGGGGSGGGGSGGGGSQSALIQPASVSGSPGQSITISCTGISSDDGYYKYVSWYQQYPGKAPKLMIYDVSKRPSGISFRFSGSKSGNTASLTISGLQAEDEADYYCSSYTSNMTPYVFGTGTKVTVL
B1: the binding entry in experiment [1] is listed as “binds”.

B2: O19 mAb (antibody, IgG4, V domains shown)
VH: QVQLVESEGGLVQPGGSLRLSCAASRFTFSNYWMSWVRQAPGKGLEWVANIKQDGSEKYYMDSVKGRFTISRDNAKNSLFLQMNTLRAEDTAMYYCTRVSFGVPTYDDFWRSYATPAWYFDFWGRGTLVTVSS
VL: QSALIQPASVSGSPGQSITISCTGISSDDGYYKYVSWYQQYPGKAPKLMIYDVSKRPSGISFRFSGSKSGNTASLTISGLQAEDEADYYCSSYTSNMTPYVFGTGTKVTVL
notes: IgG4, lambda; expressed in HEK293; not shown: human immunoglobulin gamma4 (IgG4) constant region, P01861; human immunoglobulin lambda light chain constant region, A0M8Q6
Turning to B2, the binding result in experiment [2] and in experiment [3] was “binds” throughout.
